Screening data, single-dose tests

Source: ChEMBL document CHEMBL3988442, “University of Dundee, Small-Polar-MMV Screening Library” (2021).

A: 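Phenotypic screen: M. tuberculosis growth, cholesterol and DPPC medium, 4 days; the read-out is not stated. Concentration: 50 µM. Direction is inferred from retests: higher values go with more growth inhibition. Size under these conditions: about 69,000 compounds, about 370 of them at 50% or above in at least one test.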
B: 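Phenotypic screen: M. tuberculosis growth, glucose 7H9 medium, 3 days; the read-out is not stated. Tested at 50 µM. Direction is inferred from retests: higher values go with more growth inhibition. About 69,000 compounds were tested under these conditions; 1.1% (about 760) showed 50% or more at least once.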

Values are the deposited “Percent Effect”, in %.
The controls that fix the scale are not given in the record; negative values are as filed.
This is an unselected part of the compounds tested.
Two or more numbers in one place are separate tests of the same structure; such repeats can differ widely.

compound,A,B
COc1ccccc1NC(=O)c1[nH]nc(C(C)C)c1Br,23.99,26.82
O=C(O)C(F)(F)F.O=C(O)C(F)(F)F.[H][C@@]12CN(Cc3ccc(C)s3)CCC[C@]1(C(=O)O)CN(CCOC)C2,-19.66,-25.32
Cn1cccc1C(=O)COc1ccc(S(N)(=O)=O)cc1,1.814 and -13.27,-9.278
COCCN1CCC(C(=O)c2cc(F)ccc2F)CC1,-4.809,-14.63 and -0.08561
CC(=O)N1C[C@H](NS(=O)(=O)N2CCCC2)[C@@H](c2ccc(C)o2)C1,-3.674 and -1.875,1.79
CN(C)C[C@@H]1CN(Cc2ccccc2C#N)C[C@@H]1CO,8.139,-17.57
COCC(=O)NCCC(=O)N1CCN(S(=O)(=O)c2ccc(Br)cc2)CC1,-20.22,-32.99
[H][C@]12CC[C@]([H])(CN(C(C)=O)C1)N(S(=O)(=O)c1ccc(F)cc1Cl)C2,-1.801,4.417
O=C(c1cccc(-n2cccn2)c1)N1CCCOC(CN2CCCC2)C1 (stereo not shown),5.445,17.56
CCc1nnc(CN(C)C(=O)CN2CC(c3ccccc3)CC2=O)o1 (stereo not shown),-11.92,1.507
COc1ccc(C(NCc2cccc(C#N)c2)C(C)C)cc1 (stereo not shown),-18.05,-14.33
COc1cccc(CNC(=O)Cn2ccc3c(C)nn(C)c3c2=O)c1,7.127,25.18
O=C(O)C(F)(F)F.[H][C@@]12CCCO[C@]1([H])[C@@H](OCC(=O)N(C)C)CN2Cc1c(C)noc1C,-4.285,14.13
COc1ccc(C2CCCCCN2CCCNS(C)(=O)=O)cc1 (stereo not shown),-21.66,-15.09
O=C(O)C(F)(F)F.O=C(O)C(F)(F)F.[H][C@@]12CCN(C(=O)c3cncc(C)c3)[C@]1([H])CCC(=O)N2CCN(C)C,-9.642,-34.29 and 2.762
CNC(=O)[C@@H]1C[C@@H](NC(=O)c2ccc(OC)o2)CN1Cc1sccc1C,-4.391,1.871
CNS(=O)(=O)CC(=O)N(C1CCCC1)C1CC1,3.577,2.387 and -1.839
COc1ccc(C2=CCN(C(=O)CN(C)Cc3ccco3)CC2)cc1,8.116,-2.653
Cc1cccn2c(=O)cc(OC(=O)c3ccc(OC(C)C)cc3)nc12,6.279,5.287
N#CCSCCCN1CCN(C(=O)c2ccccc2F)CC1,15.36,-4.044
Cc1csc2c(N3CCC(Cn4cc(C(C)(C)O)nn4)CC3)ncnc12,-26.49,-39.22
Cc1cc(C)n(C2CN(CC(O)c3ccc(F)cc3)C2)n1 (stereo not shown),10.7,6.363
NC(=O)C1(CCCc2ccccn2)CCCN(Cc2ccncc2)C1 (stereo not shown),-0.809,-7.653
O=C(O)C(F)(F)F.[H][C@@]12COC[C@@H](C(=O)N3CCCC3)[C@]1([H])CN(c1ccncn1)C2,-7.896,-5.234 and 0.3846
CC(C(=O)NCCN1CCN(C)CC1)n1cncn1 (stereo not shown),-6.589,1.749
CCN(C(=O)c1ccc2nnc(C3CCN(C(C)=O)C3)n2c1)C(C)C (stereo not shown),-10.69,0.2092
Cc1cnn(CC2CCCN2C(=O)c2c(C)noc2C(C)C)c1 (stereo not shown),-22.22,21.06
NC(=O)c1cc(CC2CCCN(Cc3cnccn3)CC2)ncn1 (stereo not shown),-4.592,-15.72
O=C(O)C(F)(F)F.[H][C@@]12CCCO[C@]1([H])[C@H](N(C)C)CN2C(=O)Cc1cccs1,7.958,8.448
COc1ccc(C)cc1CCNS(=O)(=O)c1ccc2c(c1)CCC(=O)N2,-21.56,-3.347 and -1.626
Cc1nnc2n1CCN(C(=O)CN1C(=O)CCOc3ccccc31)C2,-0.4346,26.69 and 1.368
CC(C)N1CCC(Cn2cc(C(N)=O)cn2)CC1,-16.15 and 5.245,19.7
Cn1ccnc1CN1CCC2(CC1)CC(Nc1ccccn1)CO2 (stereo not shown),-3.986 and 8.55,-5.636 and 9.407
O=c1cc(CNCc2ccc3c(c2)OCO3)nc2ccccn12,-25.11,-5.33
O=C(O)C(F)(F)F.[H][C@@]12CCN(Cc3cccc(C)n3)[C@@]1([H])CCN2C(=O)c1cc(C)on1,32.86,-3.436
Cc1c(CNS(=O)(=O)c2cccc(COC(C)C)c2)cnn1C,7.646,9.049
O=C(O)C(F)(F)F.O=C(O)C(F)(F)F.O=C(O)C(F)(F)F.[H][C@@]12COC[C@]1(COc1cccnc1)CN(Cc1cccnc1OC)C2,4.436,12.83
COc1cc(C2(C(=O)N3CCCC(n4cncn4)C3)CC2)ccc1C (stereo not shown),-0.4816,-5.988
Cc1ccc(CN2CCNC(=O)C2CC(=O)NCc2n[nH]c(C)n2)cc1 (stereo not shown),-15.28 and -4.22,-23.65
NCCc1nc(N(Cc2nccs2)C2CC2)c2ccccc2n1,-22.27,-22.94
CCS(=O)(=O)N1CCN(C(=O)c2cnc3[nH]nc(C)c3c2)CC1,-2.133,0.8717
COc1ccc2c(c1)Cc1c-2nc(N)c(C#N)c1C1CCOC1 (stereo not shown),-34.38,-0.3011
O=C(c1cccc2cc[nH]c12)N1CCC2(CCOC2)C1 (stereo not shown),-1.71,-19.25
COc1nccnc1N1CCC(C(=O)O)(n2ccc(C(C)(C)C)n2)CC1,2.752,16.8
Cc1noc(Cl)c1CC(=O)NCC(C)(O)c1ccc(F)cc1F (stereo not shown),-37.66,-39.69
Cc1nn(C)c(N(C)C)c1CNCC(O)c1ccccc1F (stereo not shown),-6.828,-9.47
NC(=O)CN(Cc1ccc(Br)cc1)C(=O)c1ccccn1,4.567,12.57
CC1CCN(c2ccc(C(=O)N3CCCC3c3ccc[nH]3)cn2)CC1 (stereo not shown),-27.7,0.1154
Cc1cccc(C(=O)N2CCCC2)c1NCC(=O)NC1(C#N)CCCC1,1.496,1.057
[H][C@@]12CCN(c3ccncn3)C[C@@]1([H])[C@H](C(=O)Nc1cccnc1C)CCO2,7.984,24.25
c1cncc(-c2noc(CN3CCc4cncnc4C3)n2)c1,6.047,23.26
CN(CCCOc1ccccc1)S(=O)(=O)c1cnn(C)c1,5.035,6.415
Cc1nc(C)c(C)c(N2CCC(NCCOc3ccccc3)CC2)n1,21.61,5.316
CCOc1ccc(CN2CC[C@@](C)(O)[C@@H](Cc3ccccc3)C2)cn1,13.24,23.93
O=C(NCC1CCOC1)c1csc(-c2ccc(Cl)cc2)n1 (stereo not shown),18.02,42.25
Cc1nn(C)cc1C(=O)N1CCCN(C2Cc3ccccc3C2)CC1,-6.935,1.707
Cc1nn(C)c2ncc(NC(=O)N3CCCCCC3)cc12,-11.48,-21.44
O=C(NCCN1CCOCC1)Nc1cc(F)ccc1-n1cccn1,-2.441,-22.65
CC(C)Oc1ccccc1CNC(=O)c1[nH]ncc1Br,10.68,-15.89 and 32.88
Cc1cn2nc(Sc3nnc(C(C)C)n3C)sc2n1,-11.39,10.77
Cc1nc(C)n(C2CCCN(C(=O)CCCc3ccccn3)C2)n1 (stereo not shown),-16.92,2.74
Cc1nc(N2CCCC2)ncc1-c1cc(O)nc(N2CCN(C)CC2)n1,2.862,20.96

The last 4 entries again:

{"compound": "CC(C)Oc1ccccc1CNC(=O)c1[nH]ncc1Br", "A": 10.68, "B": "-15.89 and 32.88"}
{"compound": "Cc1cn2nc(Sc3nnc(C(C)C)n3C)sc2n1", "A": -11.39, "B": 10.77}
{"compound": "Cc1nc(C)n(C2CCCN(C(=O)CCCc3ccccn3)C2)n1", "stereo": "stereo not shown", "A": -16.92, "B": 2.74}
{"compound": "Cc1nc(N2CCCC2)ncc1-c1cc(O)nc(N2CCN(C)CC2)n1", "A": 2.862, "B": 20.96}